Laboratory results reported in patent US6608082B1, “Treatment of erectile dysfunction using isoquinoline compound melanocortin receptor ligands” (Lion Bioscience AG, priority 1998, dated 2003).
pIC50: −log10 of the molar value. The match of structure and compound is tentative.

Protein sequences, listed by entry. Tags and fused reporters are not part of them.
UniProt Q01726, whole entry: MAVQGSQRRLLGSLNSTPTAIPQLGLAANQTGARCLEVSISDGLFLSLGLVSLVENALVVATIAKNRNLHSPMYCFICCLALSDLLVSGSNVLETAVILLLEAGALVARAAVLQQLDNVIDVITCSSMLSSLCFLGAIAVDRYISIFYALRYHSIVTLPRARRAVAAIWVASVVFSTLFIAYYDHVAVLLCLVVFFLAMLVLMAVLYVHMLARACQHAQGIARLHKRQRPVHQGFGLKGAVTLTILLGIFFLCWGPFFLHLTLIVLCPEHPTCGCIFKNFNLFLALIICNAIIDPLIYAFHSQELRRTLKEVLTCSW
UniProt P32245, whole entry: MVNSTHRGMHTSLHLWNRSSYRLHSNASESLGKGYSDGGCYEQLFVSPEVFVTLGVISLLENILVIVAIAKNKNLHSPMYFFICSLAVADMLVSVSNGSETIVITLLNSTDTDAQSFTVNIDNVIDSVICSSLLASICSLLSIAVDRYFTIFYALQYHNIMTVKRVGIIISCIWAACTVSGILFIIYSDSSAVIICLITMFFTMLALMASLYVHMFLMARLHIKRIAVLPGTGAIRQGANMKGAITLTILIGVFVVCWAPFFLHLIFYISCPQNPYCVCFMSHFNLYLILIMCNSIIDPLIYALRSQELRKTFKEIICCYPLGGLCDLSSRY

Experiments:
[1] = target: MCR-1 (Homo sapiens, UniProt Q01726); assay: Melanocortin receptor binding assay, competition with 125I-HP 467, HEK 293 cells expressing hMCR-1; conditions: for pIC50: read-out: MC-1 IC50, TRG 2408 and TRG 2409 libraries, inhibition of 125I-HP 467 binding
[2] = target: MCR-4 (Homo sapiens, UniProt P32245); assay: Melanocortin receptor binding assay, competition with 125I-HP 467, HEK 293 cells expressing hMCR-4; conditions: for pIC50: read-out: MC-4 IC50, TRG 2408 and TRG 2409 libraries, inhibition of 125I-HP 467 binding

Compound	pIC50 [1]	pIC50 [2]	MC-1 IC50 ([1]; TRG 2414 library, inhibition of binding of 125I-HP 467, HEK 293 cells expressing MCR-1)	MC-4 IC50 ([2]; TRG 2414 library, inhibition of binding of 125I-HP 467, HEK 293 cells expressing MCR-4)
NC[C@@H](CCCCN1Cc2ccccc2C(CNCc2ccccc2O)C1c1ccc(Cl)cc1Cl)NCCc1ccccc1 (some centres unmarked)	5.32	4.93	–	–
COc1ccc(CCNC(=O)C2c3ccccc3C(=O)N(CCCC[C@H](NC(=O)c3ccccc3)C(N)=O)C2c2ccc(Cl)cc2Cl)cc1 (some centres unmarked)	–	–	no fit	no fit
CCNc1ccc(C2C(CNCc3ccccc3O)c3ccccc3CN2CCC[C@H](N)CN)cc1 (some centres unmarked)	6.15	4.42	–	–
CCNc1ccc(C2C(CNCc3ccccc3O)c3ccccc3CN2CCC[C@@H](CN)NC)cc1 (some centres unmarked)	6.05	4.55	–	–
